# Experimental data published in PubChem BioAssay AID1347423 (Functional Genomics Laboratory (NCATS/FGL), 2020).
# Hit rate of the full screen: of about 52,000 sequences, about 210 (0.4%) were called active.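 The calls were made as follows: active = gene whose silencing raises cell survival under the drug, median off-target-corrected z-score across its silencing RNAs 2 or more; inactive = the rest.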 Some of the results follow.
# Assay: Resistance to Poly (ADP-Ribose) Polymerase inhibitor: Gene Identification via Genome-wide siRNA Screen
# Settings: mouse BRCA2 R2336H ES cells, olaparib, CellTiter-Glo viability; stronger effect = higher value
# How it was run: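 Genome-wide siRNA screen (3 siRNAs/gene, 20 nM) in mouse ES cells carrying hypomorphic BRCA2 R2336H; olaparib 500 nM added 48 h post-transfection, CellTiter-Glo viability 72 h later. Normalized to plate-median negative control; MAD z-scores, gene median, seed-adjusted.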
row,Sequence,z-score
1,GGAGCAGGCAUCGUGUUUATT against Cdh20,inactive: 0.402
2,GUUGAGUGGCUGUGAUAUATT against NMS,inactive: -0.139
3,CCAAUGCCGCCAGAAGUUATT against Siah2,inactive: 0.456
4,GGCCGCUACCUUUAUGAACTT against Prpf3,inactive: -1.12
5,GGUGGUUUAAAGACUUGAUTT against D1Pas1,inactive: 1.29
6,GGCCAAGAAGACUUAUGUATT against Tufm,inactive: 1.51
7,CGCAAAAUGCUUACCUGCUTT against 1700018O18Rik,inactive: 0.808
8,CCACUUCCUUACGAUUGAUTT against 9430007A20Rik,inactive: 0.677
9,GGACCCAAUAAAACUUCCGTT against BC021608,inactive: -0.54
10,GGCCAUAAUCAAUCCUACCTT against H2afy,inactive: -0.103
11,GGUGCAGAAAGAGAGAAGATT against Papd1,inactive: -0.116
12,GGACUGGUUCUUCAGUACCTT against Cradd,inactive: 2.24
13,GCAAAUCUUGUAAUAACACTT against Uty,inactive: 0.305
14,GGCACUCCCUAAUGAACUCTT against Adck5,inactive: 0.0432
15,GGAACUAUCUUGGUGAAGCTT against Robo2,inactive: 0.0326
16,GGGCUCUACAGUUUUUAAUTT against Atp5g3,inactive: 0.0286
17,GCUCCCAUACAGCACCUUCTT against Tbx2,inactive: 0.885
18,GGCAAAAAGGCAGUAGCCATT against Ncl,inactive: -1.12
19,GGUAUCAGACAAACACCAGTT against Syt5,inactive: -0.651
20,GGAUUUUCCAGGCAUGAGGTT against Ehd3,inactive: -1.18
21,CGUGACUUCUAUCAUACUUTT against Fntb,inactive: -0.681
22,GCCCAGAUUAUCAGAUCUGTT against Tnfaip2,inactive: -0.525
23,GGACUUAGAGAGUUUCUUGTT against Numa1,inactive: 1.44
24,GCAAUUCAGACAUACAGGGTT against 5033403J15Rik,inactive: -0.0391
25,CCCACUCCUUCUAAAAGUUTT against Cyp3a13,inactive: -0.255
26,CCACUUCCAUAGAGAUUUUTT against A730024F05Rik,inactive: -0.0108
27,GCAGUUGUUUUGACUUACUTT against E330018D03Rik,inactive: -0.202

# Single values from the results shown:
# GGACUUAGAGAGUUUCUUGTT against Numa1 | z-score: inactive: 1.44
# GGUGCAGAAAGAGAGAAGATT against Papd1 | z-score: inactive: -0.116
# GCCCAGAUUAUCAGAUCUGTT against Tnfaip2 | z-score: inactive: -0.525
# GGCAAAAAGGCAGUAGCCATT against Ncl | z-score: inactive: -1.12
# CGCAAAAUGCUUACCUGCUTT against 1700018O18Rik | z-score: inactive: 0.808
# CGUGACUUCUAUCAUACUUTT against Fntb | z-score: inactive: -0.681

# Remaining list, next part.

row,Sequence,z-score
1,CGCACUUACCGUGUCCUAUTT against Homer3,inactive: -0.593
2,AUCUGAGGAAAUCGCCCUATT against Olfr1278,inactive: -1.06
3,CCUGCUUACGUGAAAUACUTT against Garnl4,inactive: -1.22
4,UAGCCACUCAUCAUUCUAATT against LOC381806,inactive: 1.64
5,GCAAUAAUCGUUCUCAAAATT against Prkab1,inactive: 0.951
6,GGCAGGAAAUUCAUUUUAATT against Zfy2,inactive: 1.3
7,CCUGCUUGUCUCAAUAGUUTT against Krtap3-2,inactive: 0.308
8,GGUUCCUGACCACUGGUACTT against Gstt1,inactive: 0.289
9,GGCUUGUCAGUGCAUCUCATT against Kif9,inactive: -0.331
10,GGUGCAUAAAUAAAUUCCUTT against B230317F23Rik,inactive: 0.571
11,GGCACCAGUAUCAGCCUUUTT against Mrpl15,inactive: -1.23
12,GGCCAUCUCAUUUUCAGGGTT against Olfr749,inactive: 0.654
13,GGGAGACAUUUUCAAGAUGTT against B430119L13Rik,inactive: 0.208
14,GGGCAACAUGUCACUGAUCTT against Pgbd5,inactive: 1.53
15,GCAGAGAAGGCAAUAAACUTT against Txnl2,inactive: 0.544
16,GGAGAAAGUGGACCUUUUGTT against Etfb,inactive: -0.666
17,GCUCUUAUACGCCUAGGUATT against Upk1a,inactive: -0.16
18,CCUCCAAGACUUAAAAGUATT against D3Jfr1,inactive: 0.345
19,GGAUUUGGGUUUUCUAUAATT against H2-Bf,inactive: 0.0232
20,CCUUUUAUGCUAGUACUGATT against Olfr1504,inactive: 0.556
21,GGACUUAUGAGCAAAUAAATT against BC021395,inactive: -0.657
22,GGACUUCAGCGAAUUUGACTT against Ube4a,inactive: -0.29
23,GGAAAAUUCCAUUCCAAAGTT against D8Ertd233e,inactive: -0.267
24,GGGACACCUGGAAUUAAGATT against 4921511F01Rik,inactive: 0.0208
25,CCUUUCACACGUCAUCAGUTT against Trpc2,inactive: -0.0596
26,GGCUCACCUGAUACACUUUTT against Ramp2,inactive: 0.578
27,GGAUAGUGUUUCACUGUUATT against Igfals,inactive: 0.903

row,Sequence,z-score
1,GGACUUUUGUGCUGUAUUUTT against Tcfcp2l1,inactive: -1.25
2,GCUAAAUCAAGGAGACUAUTT against Art4,inactive: 1.47
3,AUUCGGGAAAAUUUUAGACTT against D11Bwg0517e,inactive: 1.68
4,GGGAAGUUCAGUUCAAUACTT against Hps4,inactive: -1.06
5,GCAACUGAAUUCCAGUUUUTT against Ugt1a2,inactive: -0.865
6,GCCCUCUGUGAGUAGUAAUTT against Shrm,inactive: -1.49
7,GGGAUUCUUACUCAGACGCTT against Bmf,inactive: -1.45
8,CGCUUGUCUAGGGUACAAATT against Daam1,inactive: 0.281
9,CCGCUGCAUAGCAUGUACATT against Dusp23,inactive: -0.268
10,GGAGAUUCACCCUGAGUGUTT against Gtf3c1,inactive: -0.358
11,GGAAGUUCCACGUUAUUGUTT against Eif2b2,inactive: 0.818
12,GGCUUACGUGGUGUGCACUTT against Galr1,inactive: -0.319
13,GCUGGUCAAGUCCUUCUAGTT against Mrpl28,inactive: 0.54
14,GCACUUAUGAUGUCCUAUUTT against Sema4b,inactive: -0.68
15,GAUCAACCUGAGCUCCAGUTT against Olfr25,inactive: -0.622
16,GGCUUCAGACCCUCAAAAGTT against C230086A09Rik,inactive: 0.672
17,GCACAACAUGGAUUGGAAATT against Dhps,inactive: -0.544
18,GGAAAAUGAAAUCAUCGAGTT against Fuca1,inactive: 0.465
19,GGAACCUUCACGAUAACAGTT against 2810407A14Rik,inactive: -0.409
20,GGACAAUUACAUCCAGCCUTT against 2610528J11Rik,inactive: 0.381
21,GGAAAUUAUCAAAGUGACATT against Camk2a,inactive: -1.54
22,CCUGGAGAAUUCGAAAAAATT against Grm8,inactive: 0.0644
23,GGGACAUUUUCUUUCUAUUTT against Diap3,inactive: 1.13
24,GGUUCUUGUUUGUUGUGGUTT against Olfr94,inactive: 0.135
25,GCAGUGUUUACUUAUCACGTT against Il10ra,inactive: -0.108
26,GGCUACAUUGUCUCAUUGUTT against Opn1mw,inactive: -0.823
27,GCACAAUCUUGUCAAAUUGTT against Birc2,inactive: 0.221

row,Sequence,z-score
1,GGAAGACCAUGUUUUAAAATT against 1810018L02Rik,inactive: 1.33
2,CCUGGUGUAGAAGUAUAUUTT against Lcat,inactive: 0.236
3,GGAAAUCUCUGGGAUAAUUTT against Hsd11b1,inactive: 0.694
4,GGAGACAAGCUAAUUGAGATT against Ppp1r8,inactive: 2.72
5,GGAUAUAACCAUCCUCUGUTT against AW125441,inactive: -2.52
6,GCUGCUGGAUGCAACCAAATT against Slc16a3,inactive: -3.2
7,CGUCGUAGCAAACCACCAATT against Tnf,inactive: -1.84
8,GGUAAAAACCAGACAGAUGTT against Olfr835,inactive: 0.615
9,GGAUGUAAAACUCUUCUACTT against Depdc6,inactive: -0.0393
10,GACAUAUUUGGGUUUCUAATT against V1rc6,inactive: 0.2
11,GGAUAUGACUGAUAUUGAUTT against Il18,inactive: 0.566
12,GGUACUGGAGGGACUUAGATT against Apob48r,inactive: 0.521
13,CCGGUCACUUGAAAUCAUGTT against Spp2,inactive: -0.431
14,GCAUUGAGUGCAUUAGAAUTT against Gnai1,inactive: 0.103
15,GGGACUUCAAAAGCAAGAATT against Acvr2b,inactive: -0.856
16,GCUUUAGGAAAUUUUGUGUTT against F630043A04Rik,inactive: -0.241
17,GGGACUUGCCUUUCAUUCUTT against Acads,inactive: -0.526
18,GCUCUGUCCAUUCCAUAAGTT against Cocoacrisp,inactive: 0.54
19,CGAUUUAAAGUAGUAGUGGTT against 0710001B24Rik,inactive: 1.69
20,CGCUGCUAAGAAUCAUCUATT against Ednrb,inactive: 0.813
21,GACUACAUUUAUAGCCCAATT against Olfr1262,inactive: -0.91
22,GGAAAAGUUAGCGUGUAAUTT against Prkcz,inactive: 1.27
23,GGAAAUUGUAAGAAGCGUATT against 1110001A07Rik,inactive: -0.609
24,CCAUUAAUAUCUUCUCUUCTT against Olfr1079,inactive: 0.566
